In patent publication EP4524159A1, “ANTIBODY AND USE THEREOF” (Sichuan Huiyu Pharmaceutical Co., Ltd., priority 2022, dated 2023):
Positions count from the first letter of the chain named.

B1: 8E5-MMAE (conjugate)
VH: EVQLKESGPELKKPGETVKISCKASGYTLTDFSMHWLKQAPGKGLKWMGWINTETGAPTYADDFKGRFALSLDTSANTAYLQINNLKNEDTATYFCSRGRDYDPHFDYWGQGTTVTVSS
VL: EIVLTQSPATLSVTPGDRVSLSCRASQSISDFLHWYQQRSHESPRLLIKYASQSISGIPSRFGGSGSGSDFTLNINTVEPEDVGMYYCQSAHSFPYTFGGGTKLEIK
B2: 3C11-MMAE (conjugate)
VH: EVQLQQSGTVLARPGASVKMSCKASGYNFISYWLHWIKQRPGQGLEWIGGIYPGNTDTTYNQKFKGKAKVTAVTSATTAYMELSSLTNEDSAVYYCIRYDYDRGMDYWGQGTTVTVSS
VL: DIQMTQSPSSFSVSLGDRVTITCRASEDIYYRLAWYQQKPGNAPRLLISGATALETGVPSRFSGSGSGKDYTLSITSLQTEDVATYYCQHYWNIPWTFGGGTKLEIK
B3: 3B 12H5-MMAE (conjugate)
VH: EVQLQQSGTVLARPGASVKMSCKASGYSFTIYWVHWVKQRPGQGLEWIGAVYPGNDDTSYNQNFKGKAKLTAVTSATTAYMELSSLTIDDSAVYYCTRHTYDEVFDYWGQGTTVTVSS
VL: B2 VL with Q3V, F11L, R24K, A51G, A53N, T56A, V58I, T85I, I94T
B4: 10D2-MMAE (conjugate)
VH: EVQLQQSGPELKKPGETVKISCKASGYTFTDYSMHWVKQAPGKGLKWMGWINTETGQPTYADDFKGRFAFSLETSASSAYLQINNLKNEDTATYFCTRTFYYDYVGDYWGQGTTVTVSS
VL: DIVMTQSHKFMSTSVGDRVSITCKASQDVSTAVAWYRQKPGQSPKLLIYWASTRHTGVPDRLTGSGSGTDFALTINSVQAEDLALYYCQQHSSTPYTFGGGTKLEIK
B5: G10F6-MMAE (conjugate)
VH: EVKLVESGPGILQPSQTLSLTCSFSGFSLSTSGMGVSWVRQPSGKGLEWLAHIYWDDDKRYNPSLKGRLTISKDTPRNQVFLEITSVDTTDTATYYCARVPGNWDEDAMDYWGQGTTVTVSS
VL: DIQMTQSPLSLPVSLGDQASISCRSSQNIVHTNGNTYLEWYLQKVGQSPKLLIYKVSNRFSGVPDRFSGSGSGTDFTLKISRVEAEDLGVYYCFQGSHVPYTFGGGTKLEIK
B6: 6A7-MMAE (conjugate)
VH: EVQLKESGAELVRPGASVKVSCKASGYSFTSYWMNWVKQRPGQGLEWIGMIHPSDSETKLNQKFRDRASLTVDKSSSTAYMQLSSPTSEDSAVYYCTINYESFYYAMDYWGQGTTVTVSS
VL: DIVMTQSPASLAVSLGQRATISCRASKSVSTSGYSYMHWYQQKPGQPPKLLLYLASNLESGVPARFSGSGSGADFTLNIHPVEEEDAATYYCLHSRELPYTFGGGTKLEIK

assay: Drug : antibody ratio (DAR) of antibody-vc-MMAE conjugates by hydrophobic HPLC; settings: share of DAR0 species
Procedure: The specific operation was to reduce each antibody and the control antibody CD27H10 (27H10 antibody in WO2018112334A1) with a 2-fold molar amount of […] (TECP) at 4 °C for 1 hour. A 7-fold molar amount of vcMMAE was then added for ligation at 4-25 °C for 1 h, and then the reaction mixture was dialyzed against 1 × PBS pH 8.0 and filtered for sterilization. Drug : antibody ratio (DAR) was detected by hydrophobic kurtosis with HLPC, and the molecular coupling results are shown in Table 14. Table 14 DAR values of antibody-drug conjugates
The humanized antibodies 1CP-125, 1CP-117 and 1CP-152 were subjected to linking to form ADC, and the linking process was the same as in example 18. Table 18 DAR values of antibody-drug conjugates

First: B1
Second: B2
The “DARO (%)” value of the first is lower: 7.97% for the first, 9.01% for the second.

Going from B3 to B4, the “DARO (%)” value rises from 5.752% to 8.28%.

First: B5
Second: B6
The “DARO (%)” value of the first is higher: 8.34% for the first, 4.87% for the second.
